Measurements taken from publication PMC11951571.
Construct, isoform or probe ends are uncertain for at least one entry. At least one verdict was read from the data and is not stated in words by the source.

Experiments:
Test in all cases: fluorescence anisotropy
Details in all cases: 1 uM protein, 10 nM DNA, 50 uM sinefungin, DNA stays bound with Fos-1 ecRNA; 50 mM KH2PO4/K2HPO4 pH 7.8, 1 mM EDTA, 1 mM DTT, 0.2 mg/ml BSA, 20 mM NaCl, 50 uM sinefungin (printed 'μm'), room temperature, 5 min; recombinant protein; residues 634-912; protein details: His (pET28a, nickel column); label: 5' 6-FAM top strand
DNMT3A_CD R736A (human) = DNMT3A_CD R736A (human) (UniProt Q9Y6K1)
DNMT3A_CD R729A (human) = DNMT3A_CD R729A (human) (UniProt Q9Y6K1)
DNMT3A_CD WT (human) = DNMT3A_CD WT (human) (UniProt Q9Y6K1)

Measured: binding result

TGGATATCTAGGGGCGCTATGATATCT (double strand) [GCbox30 duplex]
binds: all assays above
